Results: publication doi:10.1101/774158
Construct, isoform or probe ends are uncertain for at least one entry. For part of these data: At least one result comes from cells or an extract, where the contact may be indirect. For part of these data: At least one verdict rests on a figure or table, not on a statement of the authors.

Chains of the proteins cited; added tags and fusions are not shown. Residues count along the entry.
UniProt P46099, whole entry E321K: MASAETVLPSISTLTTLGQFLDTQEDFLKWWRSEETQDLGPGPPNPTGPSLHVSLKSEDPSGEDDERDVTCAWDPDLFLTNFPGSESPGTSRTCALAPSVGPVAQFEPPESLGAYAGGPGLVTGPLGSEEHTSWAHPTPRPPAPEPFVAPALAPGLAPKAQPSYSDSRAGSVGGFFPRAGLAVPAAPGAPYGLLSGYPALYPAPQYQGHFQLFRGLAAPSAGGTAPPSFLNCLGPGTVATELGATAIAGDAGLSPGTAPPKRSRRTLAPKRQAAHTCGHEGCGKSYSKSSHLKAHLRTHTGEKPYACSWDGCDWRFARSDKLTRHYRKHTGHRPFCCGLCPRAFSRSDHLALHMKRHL
UniProt P46099, 275-358 E321K: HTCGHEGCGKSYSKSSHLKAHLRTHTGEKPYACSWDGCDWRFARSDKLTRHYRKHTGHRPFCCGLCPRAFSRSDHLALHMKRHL

Tests used:
CDA-KLF1 E321K (mouse) [1] = target: CDA-KLF1 E321K (mouse) (UniProt P46099); assay: competition with a labelled probe; settings: cold 100x vs E2F2-1 and 9xG probes; protein in a lysate after overexpression
CDA-KLF1 E321K (mouse) [2] = target: CDA-KLF1 E321K (mouse) (UniProt P46099); assay: EMSA; settings: protein in a lysate after overexpression
[3] = target: CDA-ZnF-KLF1 E321K (mouse) (UniProt P46099); assay: EMSA

Sequence: AGCTAAGGGGGGGGGCA / AGCTTGCCCCCCCCCTT [9xG (CDA-GGG)]
- binding result (CDA-KLF1 E321K (mouse) [1]): binds
- binding result (CDA-KLF1 E321K (mouse) [2]): binds

Sequence: AGCTATGGGGGGGCGCC / AGCTGGCGCCCCCCCAT [CDA-GCG]
- binding result [3]: binds
- binding result (CDA-KLF1 E321K (mouse) [2]): binds

Sequence: AGCTATTGGGGGAGGCC / AGCTGGCCTCCCCCAAT [CDA-AGG]
- binding result [3]: binds
- binding result (CDA-KLF1 E321K (mouse) [2]): binds

Sequence: AGCTATTGGGGGCATCC / AGCTGGATGCCCCCAAT [CDA-CAT]
- binding result [3]: binds
- binding result (CDA-KLF1 E321K (mouse) [2]): binds

Sequence: AGCTATTGGGGGCGTCC / AGCTGGACGCCCCCAAT [CDA-CGT]
- binding result [3]: binds
- binding result (CDA-KLF1 E321K (mouse) [2]): binds

Sequence: AGCTATTGGGGGTAACC / AGCTGGTTACCCCCAAT [CDA-TAA]
- binding result [3]: binds
- binding result (CDA-KLF1 E321K (mouse) [2]): binds

Sequence: AGCTATTGGGGGTCACC / AGCTGGTGACCCCCAAT [CDA-TCA]
- binding result [3]: binds
- binding result (CDA-KLF1 E321K (mouse) [2]): binds

Sequence: AGCTGATGGGGGTGGGC / AGCTGCCCACCCCCATC [E2F2-1]
- binding result (CDA-KLF1 E321K (mouse) [1]): binds
- binding result (CDA-KLF1 E321K (mouse) [2]): binds

Sequence: AGCTGCGGGGGGGTGCC / AGCTGGCACCCCCCCGC [CDA-GTG]
- binding result [3]: binds
- binding result (CDA-KLF1 E321K (mouse) [2]): binds
